Reference: publication doi:10.1101/2020.10.28.359091 (bioRxiv, 2020)
Results are given in words; binding and its absence hold for the method and conditions named. Some entries that bind do so weakly or less than the wild type.

Biological target: T1, RARα ligand-binding domain (RAR LBD) (human, UniProt P10276-1 176-421)
T1 sequence: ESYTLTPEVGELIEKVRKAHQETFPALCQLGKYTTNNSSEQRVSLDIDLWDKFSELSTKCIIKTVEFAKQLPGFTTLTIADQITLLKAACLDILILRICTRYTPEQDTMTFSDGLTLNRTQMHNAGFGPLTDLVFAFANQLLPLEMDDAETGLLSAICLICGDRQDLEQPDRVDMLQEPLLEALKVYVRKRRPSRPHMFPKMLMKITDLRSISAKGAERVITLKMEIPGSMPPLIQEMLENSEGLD
Experiment: fluorescence polarisation

**Q.** How did the binding turn out when CTSLKEKHKILHRLLQDSS (Alexa Fluor 488 C5 maleimide on the additional cysteine) [TIF2 NR2 peptide with additional cysteine (…), Alexa Fluor 488 labelled] was run?
**A.** Its binding is “binds”.
